Laboratory results reported in US10994018B2 (priority 2017, dated 2021).
[ ]: non-standard residue; d: D form. The star is where a group is joined. Palmitoyl = CCCCCCCCCCCCCCCC(=O)*

Test: general procedure: Fmoc solid-phase peptide synthesis
Conditions: whole synthesis, wavelength 230 nm

| Substance | final HPLC purity (sodium salt) | final HPLC purity (acetate salt) |
| --- | --- | --- |
| Palmitate-Gln-His-Trp-Ser-Tyr-DLeu-Leu-Arg-Pro-NHEt [P2] | 98.2% |  |
| Palmitate-Gln-His-Trp-Ser-Tyr-DLeu-Leu-Arg-Pro-NHEt [P4] |  | 98.3% |
| Palmitate-Glu-His-Trp-Ser-Tyr-DLeu-Leu-Arg-Pro-NHEt [P1] | 98.2% |  |
| Palmitoyl-EHWSY[dL]LRP-NHEt (SMILES CCCCCCCCCCCCCCCC(=O)N[C@@H](CCC(=O)O)C(=O)N[C@@H](Cc1c[nH]cn1)C(=O)N[C@@H](Cc1c[nH]c2ccccc12)C(=O)N[C@@H](CO)C(=O)N[C@@H](Cc1ccc(O)cc1)C(=O)N[C@H](CC(C)C)C(=O)N[C@@H](CC(C)C)C(=O)N[C@@H](CCCNC(=N)N)C(=O)N1CCC[C@H]1C(=O)NCC) [P3] |  | 98.1% |
